Measurements taken from PMC2605266.
Results are given in words; binding and its absence hold for the method and conditions named. Binding seen in cells or lysates may run through a third protein. Some entries that bind do so weakly or less than the wild type. Sequences can lack the tags named with a protein.

Amino acid sequences for entries named in this document (tags omitted).
UniProt Q08850: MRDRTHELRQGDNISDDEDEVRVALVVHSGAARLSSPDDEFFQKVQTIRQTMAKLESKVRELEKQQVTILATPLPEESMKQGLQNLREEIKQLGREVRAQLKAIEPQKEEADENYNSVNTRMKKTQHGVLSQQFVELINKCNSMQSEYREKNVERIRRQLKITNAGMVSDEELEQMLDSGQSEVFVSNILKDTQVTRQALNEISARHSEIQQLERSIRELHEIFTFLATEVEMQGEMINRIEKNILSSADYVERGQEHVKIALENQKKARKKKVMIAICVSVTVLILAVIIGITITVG

Molecular target: T1, N-terminal GST-SNAP23 fusion (pET41a) (UniProt O09044)
T1 sequence: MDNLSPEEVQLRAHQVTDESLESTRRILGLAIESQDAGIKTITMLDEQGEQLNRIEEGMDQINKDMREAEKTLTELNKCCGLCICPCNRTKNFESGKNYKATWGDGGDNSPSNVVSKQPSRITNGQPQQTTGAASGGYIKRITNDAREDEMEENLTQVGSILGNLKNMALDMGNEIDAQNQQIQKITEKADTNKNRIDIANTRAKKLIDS
Test: pull-down; co-purification: syntaxin 4 (pQE30) and GST-SNAP23 (pET41a) co-expressed in BL21 DE3; lysate in A200 with 4% Triton on glutathione sepharose overnight at 4 C, washed, released with thrombin

Question: Which binding does the source give for “syntaxin 4, entire coding sequence (pQE30) (from UniProt Q08850 1-298)” here?
Answer: The binding was “binds”.
